Entries after “also recorded” stand apart in the source; their conditions may differ. For part of its entries the source gives two or more results. They are shown here; other results are not. An entry can have further records. Values that stand side by side differ for a reason that is not stated; some may be repeats, others may stem from another dose, organism or construct than stated.
Assay: pH-dependency of fluorescent intensity in GTA buffer (spectrofluorophotometer)
Conditions: 2 µM probe in GTA buffer pH 4–10, normalized to pH 10

Question: With `O=C(O)Cn1c(=O)c(=O)[nH]c2cc(C(F)(F)F)c(-n3ccc(CNC(=O)c4ccc(-c5c6ccc(=O)cc-6oc6cc(O)ccc56)c(C(=O)O)c4)c3)cc21` as the compound, how does the “pH dependency of the fluorescence intensity” value read?
Answer: Its value is “weakened even under mild acidic conditions (e.g., pH 6); also recorded: weakened under acidic conditions (pH < 6)”.

— article PMC12143348, “Rapid and reversible fluorescent probe enables repeated snapshot imaging of AMPA receptors during synaptic plasticity” (Science Advances, 2025)
